Test results from paper doi:10.1101/2025.01.05.631328 (bioRxiv, 2025).

The chains behind the UniProt entries cited, without tags or fusion partners.
UniProt P09874: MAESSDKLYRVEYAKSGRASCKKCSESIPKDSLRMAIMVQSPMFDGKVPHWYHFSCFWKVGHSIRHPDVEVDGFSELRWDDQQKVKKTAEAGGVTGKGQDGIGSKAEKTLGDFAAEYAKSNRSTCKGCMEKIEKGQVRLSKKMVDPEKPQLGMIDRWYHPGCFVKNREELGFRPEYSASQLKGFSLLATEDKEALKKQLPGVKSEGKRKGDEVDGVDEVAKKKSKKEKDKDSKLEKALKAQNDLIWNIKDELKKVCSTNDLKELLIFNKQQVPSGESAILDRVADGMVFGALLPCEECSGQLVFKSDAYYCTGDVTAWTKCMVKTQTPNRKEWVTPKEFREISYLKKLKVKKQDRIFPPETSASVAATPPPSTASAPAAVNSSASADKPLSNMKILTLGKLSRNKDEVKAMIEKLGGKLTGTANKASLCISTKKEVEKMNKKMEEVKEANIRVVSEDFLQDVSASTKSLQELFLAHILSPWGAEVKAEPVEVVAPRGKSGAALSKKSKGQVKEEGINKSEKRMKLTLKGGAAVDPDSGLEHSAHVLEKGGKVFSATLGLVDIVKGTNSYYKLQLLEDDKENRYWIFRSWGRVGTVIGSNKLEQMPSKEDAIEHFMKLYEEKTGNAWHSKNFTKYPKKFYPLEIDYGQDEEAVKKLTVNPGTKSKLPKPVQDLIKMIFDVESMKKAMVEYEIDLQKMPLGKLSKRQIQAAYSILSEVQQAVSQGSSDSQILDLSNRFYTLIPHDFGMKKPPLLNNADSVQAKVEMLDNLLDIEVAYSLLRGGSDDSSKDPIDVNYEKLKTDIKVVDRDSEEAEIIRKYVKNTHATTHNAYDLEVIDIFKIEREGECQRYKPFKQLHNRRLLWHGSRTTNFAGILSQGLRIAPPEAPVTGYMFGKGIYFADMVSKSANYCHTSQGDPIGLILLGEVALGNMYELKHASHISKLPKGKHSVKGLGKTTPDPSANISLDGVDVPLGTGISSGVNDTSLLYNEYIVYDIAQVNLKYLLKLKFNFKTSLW

T1: Flag-MISO (Mitochondrial Inner membrane Subdomain Organizer, human C3orf33, long isoform) (human) (UniProt Q6P1S2)
T1 sequence: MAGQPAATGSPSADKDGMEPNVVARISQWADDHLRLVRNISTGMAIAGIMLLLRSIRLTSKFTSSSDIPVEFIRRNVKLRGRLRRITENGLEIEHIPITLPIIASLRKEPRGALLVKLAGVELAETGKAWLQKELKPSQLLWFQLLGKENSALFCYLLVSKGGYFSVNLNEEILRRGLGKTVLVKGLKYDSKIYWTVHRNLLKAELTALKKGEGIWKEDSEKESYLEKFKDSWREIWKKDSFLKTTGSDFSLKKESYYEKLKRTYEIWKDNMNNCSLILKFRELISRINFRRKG

T2: MISO-Flag (Mitochondrial Inner membrane Subdomain Organizer, human C3orf33, long isoform), in HEK293T (human) (UniProt Q6P1S2)
T2 sequence: T1 sequence

B1: single-stranded DNA-binding protein 1 (SSBP1) (protein, UniProt Q04837 17-148)
chain: ESETTTSLVLERSLNRVHLLGRVGQDPVLRQVEGKNPVTIFSLATNEMWRSGDSEVYQLGDVSQKTTWHRISVFRPGLRDVAYQYVKKGSRIYLEGKIDYGEYMDKNNVRRQATTIIADNIIFLSDQTKEKE

What was measured:
[1] = biological target: T1, Flag-MISO (Mitochondrial Inner membrane Subdomain Organizer, human C3orf33, long isoform) (human); assay: affinity purification with mass spectrometry
[2] = biological target: T2, MISO-Flag (Mitochondrial Inner membrane Subdomain Organizer, human C3orf33, long isoform), in HEK293T (human); assay: affinity purification with mass spectrometry

Molecule	binding [1]	binding [2]
poly ADP-ribose polymerase 1 (PARP1) (from UniProt P09874 1-1014)	binds	binds
B1	binds	binds

No constants are given. Whether binding was seen depends on the method and setting. In cells and extracts the contact can be indirect. A yes stands for co-enrichment or nearness to the bait. Other partners may have been found. Where a sequence is shown, tags or fusion partners need not be part of it.
